Article PMC8414963
These are yes or no findings as the source states them, for the method shown. In cells and extracts the contact can be indirect. Some binding calls cover weakened binding; strength is not graded here.

Protein sequences, listed by entry. Tags and fused reporters are not part of them.
UniProt P63208: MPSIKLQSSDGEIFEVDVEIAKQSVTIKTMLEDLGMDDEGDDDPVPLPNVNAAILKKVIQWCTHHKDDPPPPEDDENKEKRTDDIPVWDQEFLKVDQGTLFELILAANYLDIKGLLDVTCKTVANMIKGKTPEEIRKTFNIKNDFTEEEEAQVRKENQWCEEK

T1: protein arginine N-methyltransferase 4/coactivator-associated arginine methyltransferase 1 (PRMT4/CARM1) (UniProt Q86X55)
T1 sequence: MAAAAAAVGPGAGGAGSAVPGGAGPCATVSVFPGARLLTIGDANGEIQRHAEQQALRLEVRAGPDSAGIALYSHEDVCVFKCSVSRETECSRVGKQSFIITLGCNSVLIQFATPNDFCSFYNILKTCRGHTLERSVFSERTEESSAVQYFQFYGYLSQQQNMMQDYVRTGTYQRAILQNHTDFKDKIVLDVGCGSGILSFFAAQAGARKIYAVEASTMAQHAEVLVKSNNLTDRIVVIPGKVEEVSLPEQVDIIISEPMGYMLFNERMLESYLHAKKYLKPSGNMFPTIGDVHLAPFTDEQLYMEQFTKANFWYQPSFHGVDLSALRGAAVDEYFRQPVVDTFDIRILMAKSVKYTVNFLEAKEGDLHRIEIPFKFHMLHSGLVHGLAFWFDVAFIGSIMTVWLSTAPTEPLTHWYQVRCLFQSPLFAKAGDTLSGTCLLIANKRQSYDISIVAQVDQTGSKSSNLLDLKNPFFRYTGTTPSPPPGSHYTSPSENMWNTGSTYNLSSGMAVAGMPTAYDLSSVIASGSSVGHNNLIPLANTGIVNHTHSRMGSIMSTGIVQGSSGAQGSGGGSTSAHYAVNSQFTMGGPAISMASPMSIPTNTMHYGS

B1: F-box protein FBXO9 (protein, UniProt Q9UK97 1-447)
chain: MPDIIWVFPPQAEAEEDCHSDTVRADDDEENESPAETDLQAQLQMFRAQWMFELAPGVSSSNLENRPCRAARGSLQKTSADTKGKQEQAKEEKARELFLKAVEEEQNGALYEAIKFYRRAMQLVPDIEFKITYTRSPDGDGVGNSYIEDNDDDSKMADLLSYFQQQLTFQESVLKLCQPELESSQIHISVLPMEVLMYIFRWVVSSDLDLRSLEQLSLVCRGFYICARDPEIWRLACLKVWGRSCIKLVPYTSWREMFLERPRVRFDGVYISKTTYIRQGEQSLDGFYRAWHQVEYYRYIRFFPDGHVMMLTTPEEPQSIVPRLRTRNTRTDAILLGHYRLSQDTDNQTKVFAVITKKKEEKPLDYKYRYFRRVPVQEADQSFHVGLQLCSSGHQRFNKLIWIHHSCHITYKSTGETAVSAFEIDKMYTPLFFARVRSYTAFSERPL

Molecular target: T1, protein arginine N-methyltransferase 4/coactivator-associated arginine methyltransferase 1 (PRMT4/CARM1)
Assay: co-IP; 1 mg of cell lysate in PBS with 0.5% Tween 20 plus protease inhibitors, primary antibody 2 h at room temperature, protein A/G agarose beads 2 h, immunoblotting; cells and precipitating antibody not told

Molecule	binding
Skp1 (from UniProt P63208 1-163)	binds
B1	binds
